According to US4300011A, “Selective production of aromatics” (Mobil Oil Corporation, priority 1980, dated 1981):

What was measured:
[1] = Alkylation of toluene with ethylene over HZSM-5 in presence of heterocycle; details: for OET in ethyltoluene product / PET in ethyltoluene product: 1.5 hours after slug
[2] = Toluene disproportionation; details: Example 18; 495° C, 2870 kPa, 130 ppm N; after 0.75 moles per mole Al fed
[3] = Example 11, 1.25 hours on stream
[4] = Example 11, 4.5 hours on stream
[5] = Example 7, constant 135 ppm N, lined out
[6] = Example 15, initial slug only, 10% (mole) of Al
[7] = Example 1, 0.08 g injected, 380° C, 100 psig, WHSV 28
[8] = Example 9, after slug, 10 ppm N, 3.25 hours on stream
[9] = Example 12, constant 130 ppm N, 3.75 hours on stream
[10] = Example 19, catalyst not steamed, 3.75 hours on stream
[11] = Example 2, 30 ppm N after slug, 3.25 hours on stream
[12] = Example 2, after slug 0.12 moles per mole Al (130 ppm N, 15 min), 410° C
[13] = Example 2, reduced to 10 ppm N, additional 1.5 hours
[14] = Example 2, then pure toluene, additional 1.5 hours
[15] = Example 3, 30 ppm N, 3.5 hours on stream
[16] = Example 3, after slug 0.25 moles per mole Al (30 min)
[17] = Example 3, then pure toluene 1 hour
[18] = Example 4, constant 130 ppm N, 1.75 hours on stream
[19] = Example 4, constant 130 ppm N, 3.25 hours on stream
[20] = Example 4, switched to pure toluene, 5.25 hours on stream
[21] = Example 10, ZSM-5 about 0.6 microns, 30 ppm N after slug, 2.75 hours
[22] = Example 13, 130 ppm N, 3.75 hours on stream
[23] = Example 14, 30 ppm N, 3.75 hours on stream

Structure (SMILES): c1ccc2c(c1)ccc1ccccc12 [phenanthrene, reference compound]
- OET/ET [1, 3]: 0.28%
- PET/ET [1, 3]: 53.7%
- OET/ET [1, 4]: 0.26%
- PET/ET [1, 4]: 53.9%

Structure (SMILES): Cc1ccnc2ccccc12 [4-Methylquinoline]
- ortho-isomer in ethyltoluenes [1, 5]: no detectable
- para-isomer, ethyltoluene selectivity [1, 5]: 93-94%
- OET in ethyltoluene product [1, 6]: no OET
- PET in ethyltoluene product [1, 6]: 75%
- OET in ethyltoluene product ([1]; Example 16, unsteamed catalyst): no OET
- PET in ethyltoluene product ([1]; Example 16, unsteamed catalyst): 87%

Structure (SMILES): Cc1cc(C)nc(C)c1 [2,4,6-Collidine, 2,4,6-trimethylpyridine]
- ortho-isomer in ethyltoluenes [1, 7]: less than 0.2%
- para-isomer in ethyltoluenes [1, 7]: 41%
- toluene conversion ([1]; Example 1, 0.08 g injected, change versus before injection): little change
- ortho-isomer in ethyltoluenes ([1]; Example 5, constant 135 ppm N (1 H/Al hr.), lined out): no detectable
- ortho-isomer in ethyltoluenes ([1]; Example 6, 2800 ppm (25 H/Al hr.)): no ortho-isomer

Structure (SMILES): Cc1cccc(C)n1 [2,6-Lutidine]
- catalyst activity ([1]; Example 8, 130 ppm N (1 H/Al hr.), after one hour of contact): effectively dead

Structure (SMILES): c1ccc(-c2ccnc3c2ccc2c(-c4ccccc4)ccnc23)cc1 [Bathophenanthroline, 4,7-diphenyl-1,10-phenanthroline]
- OET in ethyltoluenes [1, 8]: no detectable
- PET in ethyltoluenes [1, 8]: 66%

Structure (SMILES): c1ccc2c(c1)ccc1cccnc12 [7,8-Benzoquinoline]
- PET in ethyltoluenes [1, 9]: 80%
- toluene conversion (of theory) [1, 9]: 93%
- ortho-isomer in ethyltoluenes [1, 10]: no detectable
- para-isomer in ethyltoluenes [1, 10]: 92.4%
- toluene conversion (of theory) [1, 10]: 37%

Structure (SMILES): c1cnc2c(c1)ccc1cccnc12 [1,10-Phenanthroline]
- ortho-isomer in ethyltoluenes [1, 11]: undectectable
- para-isomer in ethyltoluenes [1, 11]: 96.8%
- ortho-isomer in ethyltoluenes [1, 12]: < 0.05%
- para-isomer in ethyltoluenes [1, 12]: 95.7%
- ortho-isomer in ethyltoluenes [1, 13]: no detectable
- para-isomer in ethyltoluenes [1, 13]: 95.8%
- ortho-isomer in ethyltoluenes [1, 14]: no detectable
- para-isomer in ethyltoluenes [1, 14]: 92.2%
- PET/ET ([1]; Example 3, 10 ppm N, 5.2 hours on stream): 96.5%
- ortho-isomer in ethyltoluenes [1, 15]: no ortho
- para-isomer in ethyltoluenes [1, 15]: 97.3%
- ortho-isomer in ethyltoluenes [1, 16]: no detectable
- para-isomer in ethyltoluenes [1, 16]: 96.8%
- PET/ET [1, 17]: 95.6%
- ethylene selectivity to ethyltoluenes [1, 17]: 94%
- toluene selectivity to ethyltoluenes [1, 17]: 94%
- OET in ethyltoluenes [1, 18]: no detectable
- PET in ethyltoluenes [1, 18]: 96.9%
- toluene conversion (of theory) [1, 18]: 91%
- PET in ethyltoluenes [1, 19]: 98.2%
- toluene conversion (of theory) [1, 19]: 90%
- PET/Et [1, 20]: 94.2%
- toluene conversion [1, 20]: 87%
- OET in ethyltoluenes [1, 21]: no detectable
- PET in ethyltoluenes [1, 21]: 90.6%
- para-selectivity, ethyltoluene product ([1]; Example 17, slug 0.25 moles per mole Al, 420° C, catalyst with 7% Mg and 3% P): 98.0%
- ortho-isomer in xylenes [2]: 18.3%
- para isomer in xylenes [2]: 36.2%

Structure (SMILES): c1ccc2c(c1)ccc1ncccc12 [5,6-Benzoquinoline]
- OET in ethyltoluenes [1, 22]: no OET
- PET in ethyltoluenes [1, 22]: 86%
- toluene conversion (of theory) [1, 22]: 97%
- OET in ethyltoluenes [1, 23]: 0%
- PET in ethyltoluenes [1, 23]: 79%
- toluene conversion (of theory) [1, 23]: 97%
